Experimental data reported in PubChem BioAssay AID1487 (National Center for Advancing Translational Sciences (NCATS), 2009).
Some of the results follow. Shown are side measurements of this screen, not its main read-out; they come without a call. Most of these compounds were active or inconclusive in the main read-out, so they are no random draw. The note in brackets gives the kind of curve behind each potency; many fits are weak.

Experiment: qHTS Assay for Modulators of Lamin A Splicing
Conditions: HeLa LMNA splicing GFP/RFP minigene ratio, 48 h
How it was run: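 Read-out is the ratio of GFP to DsRed2 object intensity, acquired by 488 nm laser-scanning cytometry on HeLa lamin A-EGFP minigene reporter cells. Compound incubation 48 hrs at 37 °C in Opti-MEM with 2% FBS; DMSO 0.5% final.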

[1] = measured here: GFP splicing reporter channel
[2] = measured here: RFP viability control channel

CC[n+]1c(/C=C/Nc2ccccc2)oc2ccccc21
AC50 [1]: 17.8 µM [rising, single point]

O=C(Nc1nc(COc2ccccc2)cs1)C1CCC1
AC50 [1]: 20 µM [rising, single point] | AC50 [2]: 22.4 µM [rising, partial curve]

CCCCN(CC)CCNC(=O)C1CCCN(c2ncnc3onc(C)c23)C1 (stereo not drawn)
AC50 [1]: 0.0316 µM [falling, full curve, poor fit]

CCC(=O)N1c2ccccc2CC1C(=O)NCc1ccc(N(C)C)cc1 (stereo not drawn)
AC50 [1]: 1.78 µM [rising, partial curve]

O=C(N/N=C/c1cc([N+](=O)[O-])ccc1Cl)c1cnccn1
AC50 [2]: 6.31 µM [falling, single point]

FC(F)(F)c1cccc(-c2nn[nH]n2)c1
AC50 [1]: 0.0141 µM [rising, full curve, poor fit]

CCc1ccc2c(COn3nnc4ccc(S(=O)(=O)N(C)C)cc43)cc(=O)oc2c1
AC50 [1]: 35.5 µM [rising, single point]

CCOC(=O)c1cc(-c2ccc(F)cc2)n(CCC(=O)Nc2nc3ccc(OC)cc3s2)c1C
AC50 [1]: 5.62 µM [falling, single point] | AC50 [2]: 5.62 µM [falling, single point]

N#Cc1c(-c2ccccc2Cl)cc(-c2ccccc2)nc1Br
AC50 [1]: 22.4 µM [rising, single point] | AC50 [2]: 35.5 µM [rising, single point]

Cn1c(=O)oc2cc(S(=O)(=O)CCC(=O)NCCc3ccc(Cl)cc3)ccc21
AC50 [2]: 12.6 µM [rising, partial curve]

COCCN1C(=O)CS/C1=C(/C#N)C(=O)NCc1ccco1
AC50 [2]: 28.2 µM [rising, single point]

CCC(=O)Nc1cccc(C(=O)/C=C/c2cccs2)c1
AC50 [1]: 3.98 µM [falling, partial curve] | AC50 [2]: 20 µM [falling, single point]

O=C(Nc1nccs1)c1ccc(CSc2nnnn2-c2ccccc2)cc1
AC50 [2]: 31.6 µM [rising, single point]

Nc1cccc2cnccc12
AC50 [1]: 0.631 µM [falling, full curve, poor fit] | AC50 [2]: 0.794 µM [falling, full curve]

Nc1ccc(N2CCCCC2)cc1N1CCCCC1
AC50 [1]: 15.8 µM [rising, partial curve] | AC50 [2]: 17.8 µM [rising, partial curve]

Cc1nn(-c2ccccc2)c(C)c1/C=N/NC(=O)c1cc(-c2ccc(Cl)s2)[nH]n1
AC50 [1]: 7.08 µM [falling, partial curve] | AC50 [2]: 7.94 µM [falling, partial curve]

Cc1cccc(Oc2nc3ccccn3c(=O)c2/C=C(\C#N)C(=O)NC2CCS(=O)(=O)C2)c1 (stereo not drawn)
AC50 [2]: 20 µM [rising, single point]

COc1cc(OC)c(NS(=O)(=O)c2ccc(Cl)c(C(=O)OC(C)C(=O)N3CCCC3)c2)cc1Cl (stereo not drawn)
AC50 [1]: 8.91 µM [rising, partial curve, poor fit] | AC50 [2]: 12.6 µM [rising, partial curve]

FC(F)(F)c1ccccc1-c1nc(NCc2cccs2)c2ccccc2n1
AC50 [1]: 25.1 µM [falling, single point] | AC50 [2]: 25.1 µM [falling, single point]

O=c1c2ccccc2nc(SCc2nc(-c3ccccc3)no2)n1-c1ccc(F)cc1
AC50 [2]: 22.4 µM [rising, single point]

Fc1ccc(Nc2nc(-c3ccoc3)nc3ccccc23)cc1
AC50 [1]: 14.1 µM [falling, partial curve, poor fit] | AC50 [2]: 14.1 µM [falling, partial curve, poor fit]

CCOc1ccccc1NC(=O)Nc1cccc(S(N)(=O)=O)c1
AC50 [1]: 28.2 µM [falling, single point] | AC50 [2]: 35.5 µM [falling, single point]

Cc1oc2ncn(C)c(=O)c2c1C(=O)NCc1ccc(Cl)cc1
AC50 [1]: 0.126 µM [rising, full curve, poor fit]

COc1ccc(-c2nc(Cn3c(SCc4cccc(C(F)(F)F)c4)nc4cccnc43)c(C)o2)cc1OC
AC50 [1]: 0.02 µM [falling, full curve, poor fit]

Cc1cccc(NC(=O)CSc2nnc(CNC(=O)c3ccc(S(=O)(=O)N(C)C)cc3)n2-c2ccccc2)c1
AC50 [2]: 20 µM [rising, single point]

CCCNCC1C(Oc2ccc(Cl)cc2)C(=O)N1c1ccccc1C (stereo not drawn)
AC50 [2]: 35.5 µM [rising, single point]

COc1cc2c3nnc(-c4ccc(F)cc4)c-3cn(Cc3ccccc3)c2cc1OC
AC50 [2]: 35.5 µM [falling, single point]

CCN(CC)c1ccc(C(=O)NCc2ccc3c(c2)CCN3C(=O)c2ccc(F)cc2)cc1
AC50 [2]: 11.2 µM [rising, single point]

Cc1cc(N2CCCC2)nc2c(C)cccc12
AC50 [1]: 0.0891 µM [falling, full curve, poor fit]

COc1cccc(OCc2nc3ncc(Br)cc3[nH]2)c1
AC50 [2]: 4.47 µM [rising, partial curve, poor fit]

COc1ccc(C(=O)NNc2ncnc3c2cnn3-c2cccc(Cl)c2)cc1OC
AC50 [1]: 35.5 µM [falling, single point] | AC50 [2]: 35.5 µM [falling, partial curve]

COc1ccc(C2=NOC(C(=O)NCc3ccco3)C2)cc1 (stereo not drawn)
AC50 [2]: 3.55 µM [rising, full curve, poor fit]

Cc1cs/c(=N\N=C\c2ccccc2)n1Cc1ccco1
AC50 [1]: 20 µM [rising, single point] | AC50 [2]: 35.5 µM [rising, single point]

O[Si](CCCN1CCCCC1)(c1ccc(F)cc1)C1CCCCC1 (stereo not drawn)
AC50 [1]: 15.8 µM [falling, single point] | AC50 [2]: 20 µM [falling, single point]

COc1ccc(Cl)cc1CNCCSc1nnnn1-c1ccccc1
AC50 [1]: 0.00708 µM [rising, full curve, poor fit] | AC50 [2]: 0.00891 µM [rising, full curve, poor fit]

COc1ccc(S(=O)(=O)N2CCC(C(=O)NCc3ccccc3)CC2)cc1OC
AC50 [1]: 0.891 µM [rising, partial curve, poor fit]

CC(C)C(c1nnnn1C1CCCC1)N1CCC(C(N)=O)CC1 (stereo not drawn)
AC50 [2]: 35.5 µM [falling, single point]

COc1ccc(CNC(=O)C(=O)NCC(c2ccco2)N2CCOCC2)cc1 (stereo not drawn)
AC50 [1]: 11.2 µM [falling, partial curve] | AC50 [2]: 10 µM [falling, partial curve]

COc1cc(C(=O)Nc2ccc3c(c2)N(C2CCCC2)C(=O)c2ccccc2S3)cc(OC)c1OC
AC50 [1]: 8.91 µM [falling, partial curve, poor fit]

CC(C)Oc1ccc(C(=O)NCC(c2ccc(N(C)C)cc2)N2CCCC2)cc1 (stereo not drawn)
AC50 [1]: 7.08 µM [falling, partial curve, poor fit]

COc1ccc(CCNC(=O)c2nc(-c3cccs3)no2)cc1OC
AC50 [2]: 22.4 µM [rising, single point]

CCC(SC1=NCCS1)C(=O)Nc1nnc(-c2ccccc2OC)s1 (stereo not drawn)
AC50 [2]: 12.6 µM [rising, partial curve]

Cc1ccc(NS(=O)(=O)c2cc(-c3cnc(C4CC4)o3)ccc2C)cc1Cl
AC50 [1]: 12.6 µM [falling, partial curve, poor fit] | AC50 [2]: 3.55 µM [rising, single point]

COC(=O)c1cc(CSc2nnc(NC3CCCCC3)s2)oc1C
AC50 [2]: 22.4 µM [rising, single point]

CCCCNC(=O)c1cc(-c2ccc(OC)cc2)nc2n[nH]c(-c3cccc([N+](=O)[O-])c3)c12
AC50 [2]: 0.316 µM [falling, partial curve, poor fit]

CNC(=S)NNC(=O)Cc1ccc(O)cc1
AC50 [1]: 3.55 µM [rising, partial curve] | AC50 [2]: 0.891 µM [rising, full curve, poor fit]

COc1ccc(NC(=O)COc2ncnc3ccccc23)cc1S(=O)(=O)N1CCOCC1
AC50 [1]: 0.0794 µM [falling, full curve, poor fit] | AC50 [2]: 0.126 µM [falling, full curve]

Nc1nc(NCc2ccco2)nc(N2CCCCC2)c1[N+](=O)[O-]
AC50 [1]: 5.62 µM [rising, partial curve] | AC50 [2]: 1.58 µM [rising, partial curve, poor fit]

Cc1ccc2c(c1)cc(C(=O)Nc1ccc(F)cc1F)n2C
AC50 [2]: 5.62 µM [rising, full curve]

CCCCCC(=O)N(O)C1CC(=O)N(c2ccccc2)C1=O (stereo not drawn)
AC50 [2]: 11.2 µM [rising, partial curve]

O=C(Cc1cc(=O)[nH][nH]1)N/N=C/c1c(F)cccc1Cl
AC50 [2]: 5.62 µM [falling, single point]

CCCCNC(=S)N/N=C/C1=CCC2CC1C2(C)C (stereo not drawn)
AC50 [1]: 11.2 µM [rising, single point] | AC50 [2]: 22.4 µM [rising, single point]

O=C(CSc1nc2ccccc2[nH]1)Nc1ccc(F)c(F)c1
AC50 [2]: 12.6 µM [rising, single point]

COc1ccccc1/C=C/C=N\N1CCN(Cc2ccccc2Cl)CC1
AC50 [2]: 12.6 µM [rising, partial curve]

CC1CCN(c2ccccc2NC(=S)NC(=O)c2cccs2)CC1
AC50 [1]: 14.1 µM [falling, single point] | AC50 [2]: 12.6 µM [falling, partial curve]

COc1ccc(NC(=O)/C(C#N)=C/C=C/c2ccco2)cc1
AC50 [2]: 2.51 µM [rising, partial curve, poor fit]
